US11878955B1, “3,3′,3″-nitrilotris(1-(naphthalen-2-yloxy)propan-2-ol) as an eco-friendly insecticidal agent against Spodoptera littoralis (boisd.)” (priority 2023, dated 2024)

Tested on: Spodoptera littoralis larvae (2nd and 4th instars)
Assay: Insecticidal bioassay screening (castor leaf dip)
Format: in vivo
Settings: after 72 h of treatment, regression line slope
Protocol: Five concentrations (200, 100, 50, 25, 12.5 ppm) were designed for this synthetic compound and the reference fenoxycarb compound as the dynamic ingredients based on ppm via diluting the commercial formulation.
In this experiment, castor leaves are immersed in each of the previously prepared concentrations of the components for 10 seconds and then left to dry for 60 minutes. Larvae of the second and fourth instars of each checked strain are prepared with treated leaves in gauze-covered glass containers for 72 hrs. An untreated control is made in which leaves are dipped in triton x-100 and distilled water only. Then the preserved leaves were removed & fresh, untreated leaves were provided for 72 hours. Three replicates (10 larvae each) were checked for each concentration. Daily inspection was carried out for all treatments and mortality percentages were recorded 3 days (72 hours) after treatment. The average mortality percentage was corrected employing Abbott's formula. The corrected mortality rate for each of the previously synthesized compounds is statistically calculated according to Finney (1970). Through this rate, the corresponding concentration test lines (LDP lines) are assessed. Fifty and ninety percent mortality are determined, and the regression values for the checked products were previously evaluated.

## CCOC(=O)NCCOc1ccc(Oc2ccccc2)cc1 [Fenoxycarb, reference compound]
2nd instar larvae of S. littoralis
  slope ± SE: 0.238 ± 0.082
4th instar larvae of S. littoralis
  slope ± SE: 0.251 ± 0.082
